Reference: publication PMC11977196
Results are given in words; binding and its absence hold for the method and conditions named.

Biological target: Ca2+-ATPase 1 from Listeria monocytogenes (LMCA1), wild type (Listeria monocytogenes) (UniProt Q8Y8Q5)
Experiment: SEC; Superdex 200 10/300 in 50 mM Tris-HCl, 150 mM KCl, pH 7.6; LMCA1 reconstituted in saposin A nanodiscs with brain extract lipids; monomeric fraction separated from aggregates and empty discs; both purified

binding: no binding
B1: Ca2+-ATPase 1 from Listeria monocytogenes (LMCA1), wild type (enzyme, UniProt Q8Y8Q5 2-880)
chain: EIYRKSAAETFTQLEATEKGLTTSEVTKRQEKYGFNELKNKKKDPLWKLFLETFKDPMVIVLVIAALVQLVLGEVVESLIIFLVLIVNSIISVVQTRKAESSLDALREMSAPVAKVIRDGSKQSIHARELVPGDVVILDAGDFVPADGRLFESGSLKIDEGMLTGESEAVEKYIDTIPDEVGLGDRVNMVFSGSLVVYGRGMFVVTGTASETEIGKIAGLLETAEAKQTPLQRKLESFSKKLGLGILALCVLIFAVEAGRVLLGDNSADMATAILNAFMFAVAVAVAAIPEALSSIVTIVLAVGTNKMAKQHAIIRKLPAVETLGSTSVICTDKTGTLTQNKMTVVDYYLPDGTKENFPESPENWSEGERRLIHIAVLCNDSNINSEGKELGDPTEVALIAFSNKNNQDYNEIREKFIREGEIPFDSDRKLMSTLHTFNENKAMLTKGGPDVMFARCSYVFLDGEEKPMTEEILAKLKETNEEFSNQALRVLAYGYKRMPADTTELKLEDEQDIVLVGLTAMIDPPREAVYASIEESKKAGIRTVMITGDHKTTAQAIGRDIGLMDADDIALTGQELDAMPEEELDKKLEHIAVYARVSPENKIRIVKAWQKKGKITAMTGDGVNDAPALKQADIGVAMGSGTDVAKDSAAMILTDDNFVSIVDAVGVGRTVFDNIKKSIAYLFAGNLGAIIAILFALVLDWINPFTALQLLFINLVNDSLPAIALGMEKAEPDVMKRKPRDINEGIFAGGTMRAVISRGVLIGIAVIISQYIGMQISPEMSVAMAFTTLILARTLQTFAARSNVQTAFGAGFFSNKYVIGAVLLCFVLYGITVLPGAREIFSIPASFGLHEWSIAAGLALAAVVMMEIIKVVQNKFFK
